# Laboratory results reported in patent publication US20060167096A1, “Livestock products with an increased ppar/rxr heterodimer activator level” (priority 2003, published 2006).
# Key:
# ROSS 308 broiler chicks = test: Broiler feeding trial with phytol supplemented feed; format: in vivo, chicken; conditions: 2% phytol in feed, 42 days
# Procedure: In the present specification the level of the PPAR/RXR heterodimer activator is expressed as a percentage of total FAME fatty acids. These total FAME fatty acids comprise those fatty acids with a linear chain of at least 12 carbons and are measured by the so-called FAME technique, which is well known for the skilled person and wherein, first, fatty acid methyl esters are prepared which are, subsequently, analysed via gas chromatography. The FAME procedure used for determining the results obtained by the present invention was as follows. Lipids were extracted from the samples using a dissolving solution that is specific to each sample type. Nonadecanoic acid (19:0) was added as an internal standard. The two-step methylation procedure consisted of using a basic reagent NaOH/methanol followed by an acid reagent HCI/methanol. The fatty acid methyl esters (FAME) were analyzed by GC (HP 6890, Hewlett-Packard, Brussels, Belgium) using a CP-Sil88 column for FAME (100 m×250 μm×0.25 μm) (Chrompack, Middelburg, The Netherlands). The GC conditions were as adapted to each sample type. Peaks were identified by comparison of retention times with those of the corresponding standards (Sigma, Botnew, Belgium; Nu-Chek-Prep, Elysian, M N). Identification of the peaks included fatty acids between 12:0 and 22:6 and 5 different CLA isomers and phytanic acid and pristanic acid. […]
# ISABROWN layers = test: Layer feeding trial with phytol supplemented feed; format: in vivo; conditions: 2% phytol fed
# [1] = system: Tiger shrimp (Penaeus Monodon); test: Shrimp feeding trial with phytol supplemented diet; format: in vivo; conditions: 2% phytol diet, last two weeks
smiles,measurement,setting,value
C/C(=C\CO)CCC[C@H](C)CCC[C@H](C)CCCC(C)C [phytol],feed conversion rate,ROSS 308 broiler chicks,2.120
same,ratio breast weight/total weight,ROSS 308 broiler chicks,14.4%
same,ADFI,ISABROWN layers,103.8 g/a/d
same,Daily egg mass,ISABROWN layers,52.1 g/a/d
same,Egg weight,ISABROWN layers,62.8 g/a/d
same,FCR,ISABROWN layers,2.0
same,Laying rate,ISABROWN layers,83.0%
same,"quality of the eggs (shell quality, color of the yolk)",ISABROWN layers; except less reddish yolk,did not change significantly
same,feed consumed,[1],53.7 g
